Assay results from patent publication US20210309631A1, “SALT OF CYCLOHEXANE DERIVATIVE” (priority 2018, published 2021).
This continues a long series; more values of the same kind are listed elsewhere.

Assay: In vivo individual difference analysis: individual plasma concentration versus time in rats (Example 8)
Design: species or system SD rats
Conditions: intragastric 1 mg/kg, listed as Hydrochloride Salt of Compound of Formula I
Procedure: Compound of Formula I and salts thereof (sulfate, hydrochloride salt, phosphate, maleate), supplied by Shanghai Jingxin Biopharmaceutical Co., Ltd. • Strain: SD rats; Gender: male; Body weight: about 250 grams; Source: shanghai Jiesijie Experimental Animal Co., Ltd Route: single intragastric administration; Capacity: measured in 10 mL/kg body weight Preparation: weighing appropriate amount of the free base or salt of the compound of Formula I, adding a small amount of 0.5% CMC-Na to grind, adding 0.5% CMC-Na to the volume. The concentration is measured as the base. 20 SD rats were divided into 5 groups with 4 rats in each group, fasted for 12 h and drank freely before administration. […] The blood was anticoagulated with 1% heparin, the plasma was separated by 8000 rpm centrifugation for 4 min and stored at -40° C. for testing. LC-MS/MS Method. Pharmacokinetic parameters after administration in rats were calculated using a non-compartmental model of DAS 2.0 software.

In the case of `CN(C)C(=O)N[C@H]1CC[C@H](CCN2CCN(c3cccc4ccsc34)CC2)CC1` [Example 2, N′-[trans-4-[2-[7-(benzo[b]thiophene)-7-piperazinyl]ethyl]cyclohexyl]-N,N-dimethylurea], the “Plasma Concentrations of Compound of Formula I” value (“Plasma Concentrations” for short) (5 min after administration, Mean ± SD) was 10.9 ± 15.0 ng/mL, the “Plasma Concentrations” value (5 min after administration, rat 1♂) was 0.448 ng/mL and the “Plasma Concentrations” value (5 min after administration, rat 2♂) was 1.02 ng/mL. For the same molecule, the “Plasma Concentrations” value (5 min after administration, rat 3♂) was 9.68 ng/mL, the “Plasma Concentrations” value (5 min after administration, rat 4♂) was 32.6 ng/mL and the “Plasma Concentrations” value (0.167 h after administration, Mean ± SD) was 11.4 ± 9.40 ng/mL. The “Plasma Concentrations” value (0.167 h after administration, rat 1♂) was 5.53 ng/mL, the “Plasma Concentrations” value (0.167 h after administration, rat 2♂) was 10.3 ng/mL and the “Plasma Concentrations” value (0.167 h after administration, rat 3♂) was 4.72 ng/mL. For the same molecule, the “Plasma Concentrations” value (0.167 h after administration, rat 4♂) was 25.0 ng/mL, the “Plasma Concentrations” value (1 h after administration, Mean ± SD) was 30.3 ± 9.55 ng/mL and the “Plasma Concentrations” value (2 h after administration, Mean ± SD) was 17.1 ± 5.86 ng/mL. The “Plasma Concentrations” value (2 h after administration, rat 1♂) was 19.4 ng/mL, the “Plasma Concentrations” value (2 h after administration, rat 2♂) was 11.5 ng/mL and the “Plasma Concentrations” value (2 h after administration, rat 3♂) was 13.3 ng/mL. For the same molecule, the “Plasma Concentrations” value (2 h after administration, rat 4♂) was 24.3 ng/mL, the “Plasma Concentrations” value (4 h after administration, Mean ± SD) was 5.86 ± 2.45 ng/mL and the “Plasma Concentrations” value (4 h after administration, rat 1♂) was 5.99 ng/mL. For the same molecule, the “Plasma Concentrations” value (4 h after administration, rat 2♂) was 3.04 ng/mL, the “Plasma Concentrations” value (4 h after administration, rat 3♂) was 5.43 ng/mL and the “Plasma Concentrations” value (4 h after administration, rat 4♂) was 8.99 ng/mL. For the same molecule, the “Plasma Concentrations” value (6 h after administration, Mean ± SD) was 2.59 ± 1.02 ng/mL, the “Plasma Concentrations” value (6 h after administration, rat 1♂) was 2.26 ng/mL and the “Plasma Concentrations” value (6 h after administration, rat 2♂) was 1.46 ng/mL. For the same molecule, the “Plasma Concentrations” value (6 h after administration, rat 3♂) was 2.74 ng/mL, the “Plasma Concentrations” value (6 h after administration, rat 4♂) was 3.90 ng/mL and the “Plasma Concentrations” value (9 h after administration, Mean ± SD) was 1.05 ± 0.295 ng/mL. For the same molecule, the “Plasma Concentrations” value (9 h after administration, rat 1♂) was 0.932 ng/mL, the “Plasma Concentrations” value (9 h after administration, rat 2♂) was 0.683 ng/mL and the “Plasma Concentrations” value (9 h after administration, rat 3♂) was 1.32 ng/mL. For the same molecule, the “Plasma Concentrations” value (9 h after administration, rat 4♂) was 1.25 ng/mL, the “Plasma Concentrations” value (12 h after administration, Mean ± SD) was 0.833 ± 0.636 ng/mL and the “Plasma Concentrations” value (12 h after administration, rat 1♂) was 0.514 ng/mL. For the same molecule, the “Plasma Concentrations” value (12 h after administration, rat 2♂) was 0.299 ng/mL, the “Plasma Concentrations” value (12 h after administration, rat 3♂) was 1.74 ng/mL and the “Plasma Concentrations” value (12 h after administration, rat 4♂) was 0.777 ng/mL. For the same molecule, the “Plasma Concentrations” value (24 h after administration, Mean ± SD) was 0.336 ± 0.210 ng/mL, the “Plasma Concentrations” value (24 h after administration, rat 1♂) was 0.139 ng/mL and the “Plasma Concentrations” value (24 h after administration, rat 2♂) was 0.423 ng/mL. For the same molecule, the “Plasma Concentrations” value (24 h after administration, rat 3♂) was 0.591 ng/mL and the “Plasma Concentrations” value (24 h after administration, rat 4♂) was 0.190 ng/mL.
